Results published in patent publication EP1743642A1 (priority 2005, dated 2007).
For at least one compound, name, drawing or mass did not settle the structure.

Assay: In-vivo testing for antidepressant activity, water despair test

**Q.** What does the source list for O=C(NN1CCCCC1)C1=NN(c2ccc(Cl)cc2Cl)C(c2ccc(Cl)cc2)C1 (centres unmarked) [Example 1, N-piperidinyl-5-(4-chlorophenyl)-1-(2,4-dichlorophenyl)-4,5-dihydro-1H-pyrazole-3-carboxamide]?
**A.** immobility time: positive effects; struggling time: positive effects
